Measurements: patent US11045554B1 (National Technology & Engineering Solutions of Sandia, LLC, priority 2018, dated 2021)
At least one structure is not confirmed: it was looked up by name or label, or the drawing left a doubt.

Test system: HeLa cells
Type: cell-based

COC[C@H]1OC(=O)c2coc3c2[C@@]1(C)C1=C(C3=O)[C@@H]2CCC(=O)[C@@]2(C)C[C@H]1OC(C)=O [wort, wortmannin]
LC-MSN internalization in presence of inhibitor (in words): not
